{"source": "PubChem BioAssay AID1259254 – NCATS, 2017", "test": "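Finding genes that stop cells copying their DNA twice in one cycle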 (primary screen)", "cell system": "human HCT116 colorectal cancer cells", "reagent": "single siRNA against human genes", "time to read-out": "3 days", "read-out": "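Nuclei stained with Hoechst and imaged; cell-cycle phase assigned by DNA content; G2 share scaled per plate, non-targeting siRNA 0%, GMNN siRNA 100%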", "reading the numbers": "G2 robust z-score: higher = more G2 cells, more excess DNA replication", "call rule": "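An siRNA counts as active if its G2 robust z-score lies at least 5 MADs above the screen median; here such calls match roughly 38% of GMNN control or more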", "note": "Shown is an unselected part of about 59,000 reagents. Of all reagents, about 1,550 (2.6%) got an active call. 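G2 share is only a proxy for re-replication; each gene was hit by three separate siRNAs, and active genes were retested.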 Reagents against one gene are numbered here. Further read-outs or replicates are left out here. Not stated in the record: the amount of reagent."}
{"Gene": "FOXRED2", "siRNA no.": 1, "G2 robust z-score": 1.12, "call": "inactive"}
{"Gene": "FOXRED2", "siRNA no.": 2, "G2 robust z-score": 0.783, "call": "inactive"}
{"Gene": "FOXRED2", "siRNA no.": 3, "G2 robust z-score": 1.87, "call": "inactive"}
{"Gene": "NKX1-1", "siRNA no.": 1, "G2 robust z-score": -1.02, "call": "inactive"}
{"Gene": "NKX1-1", "siRNA no.": 2, "G2 robust z-score": -0.232, "call": "inactive"}
{"Gene": "NKX1-1", "siRNA no.": 3, "G2 robust z-score": 1.54, "call": "inactive"}
{"Gene": "SEC23IP", "siRNA no.": 1, "G2 robust z-score": -1.19, "call": "inactive"}
{"Gene": "SEC23IP", "siRNA no.": 2, "G2 robust z-score": -0.771, "call": "inactive"}
{"Gene": "SEC23IP", "siRNA no.": 3, "G2 robust z-score": -0.435, "call": "inactive"}
{"Gene": "EHD1", "siRNA no.": 1, "G2 robust z-score": -0.827, "call": "inactive"}
{"Gene": "EHD1", "siRNA no.": 2, "G2 robust z-score": -1.19, "call": "inactive"}
{"Gene": "EHD1", "siRNA no.": 3, "G2 robust z-score": 1.02, "call": "inactive"}

Next part, starting with the last 2 of the part before.
{"Gene": "EHD1", "siRNA no.": 2, "G2 robust z-score": -1.19, "call": "inactive"}
{"Gene": "EHD1", "siRNA no.": 3, "G2 robust z-score": 1.02, "call": "inactive"}
{"Gene": "ATP6V1C1", "siRNA no.": 1, "G2 robust z-score": -0.619, "call": "inactive"}
{"Gene": "ATP6V1C1", "siRNA no.": 2, "G2 robust z-score": 3.63, "call": "inactive"}
{"Gene": "ATP6V1C1", "siRNA no.": 3, "G2 robust z-score": 1.42, "call": "inactive"}
{"Gene": "CLCNKB", "siRNA no.": 1, "G2 robust z-score": 5.53, "call": "active"}
{"Gene": "CLCNKB", "siRNA no.": 2, "G2 robust z-score": 0.287, "call": "inactive"}
{"Gene": "CLCNKB", "siRNA no.": 3, "G2 robust z-score": -0.133, "call": "inactive"}
{"Gene": "TEX44", "siRNA no.": 1, "G2 robust z-score": -0.463, "call": "inactive"}
{"Gene": "TEX44", "siRNA no.": 2, "G2 robust z-score": 0.362, "call": "inactive"}
{"Gene": "TEX44", "siRNA no.": 3, "G2 robust z-score": 0.926, "call": "inactive"}
{"Gene": "ECE1", "siRNA no.": 1, "G2 robust z-score": -1.02, "call": "inactive"}
{"Gene": "ECE1", "siRNA no.": 2, "G2 robust z-score": -0.78, "call": "inactive"}
{"Gene": "ECE1", "siRNA no.": 3, "G2 robust z-score": 1.85, "call": "inactive"}
{"Gene": "SNX5", "siRNA no.": 1, "G2 robust z-score": 0.294, "call": "inactive"}
{"Gene": "SNX5", "siRNA no.": 2, "G2 robust z-score": 2.47, "call": "inactive"}
{"Gene": "SNX5", "siRNA no.": 3, "G2 robust z-score": -0.0348, "call": "inactive"}
{"Gene": "OR6A2", "siRNA no.": 1, "G2 robust z-score": 2.52, "call": "inactive"}
{"Gene": "OR6A2", "siRNA no.": 2, "G2 robust z-score": -0.352, "call": "inactive"}
{"Gene": "OR6A2", "siRNA no.": 3, "G2 robust z-score": -0.728, "call": "inactive"}
